Reference: US8329730B2, “Compounds” (Glaxo Group Limited, priority 2008, dated 2012)
Counter-ions that a name gives are not always drawn. Some entries share one result that the patent states for a list of compounds.

Protein sequences, listed by entry. Tags and fused reporters are not part of them. Lines headed by an entry give the natural chain unless they say otherwise; changes in a name come on top.
UniProt Q99500: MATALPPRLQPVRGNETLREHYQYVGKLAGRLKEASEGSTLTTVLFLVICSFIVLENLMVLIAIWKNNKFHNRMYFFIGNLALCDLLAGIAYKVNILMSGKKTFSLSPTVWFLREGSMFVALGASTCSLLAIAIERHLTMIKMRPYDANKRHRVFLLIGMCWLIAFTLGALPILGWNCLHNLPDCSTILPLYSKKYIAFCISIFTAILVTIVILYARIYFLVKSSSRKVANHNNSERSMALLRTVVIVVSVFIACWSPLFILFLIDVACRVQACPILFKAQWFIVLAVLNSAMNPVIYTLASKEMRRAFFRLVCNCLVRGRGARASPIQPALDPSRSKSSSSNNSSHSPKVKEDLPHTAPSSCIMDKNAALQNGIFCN

Biological target: T1, human S1P3 receptor (Homo sapiens, UniProt Q99500)
T1 construct: expressed in transfected cells; membranes
Assay: S1P3 GTPγS binding assay (and alternative method)
Format: biochemical
Details: in one of the above S1P3 GTPγS binding assays (first or alternative method, RBL membranes)
Protocol: For membrane preparations all steps were performed at 4° C. Rat hepatoma cells stably expressing the human S1P1 receptor or Rat Basophilic Leukaemia cells (RBL) stably expressing human S1P3 receptor were grown to 80% confluency before being harvested into 10 ml Phospho-Buffered Saline (PBS) and centrifuged at 1200 rpm […]. After removal of the supernatant, the pellet was re-suspended and cells were homogenised within a glass Waring blender for 2 bursts of 15 secs in 200 mls of buffer (50 mM HEPES, 1 mM leupeptin, 25 μg/ml bacitracin, 1 mM EDTA, 1 mM PMSF, 2 μM pepstatin A). The blender was plunged into ice for 5 mins after the first burst and 10-40 mins after the final burst to allow foam to dissipate. The material was then spun at 500 g for 20 mins and the supernatant spun for 36 mins at 48,000 g. The pellet was resuspended in the same buffer as above but without PMSF and pepstatin A. The material was then forced through a 0.6 mm needle, made up to the required volume, (usually ×4 the volume of the original cell pellet), aliquoted and stored frozen at −80° C. S1P3 membranes from rat basophilic leukaemia cells (RBL-2H3)(1.5 μg/well) were adhered to WGA-coated SPA beads (0.125 mg/well) in assay buffer (HEPES 20 mM, MgCl2 3 mM, NaCl 100 mM and pH adjusted to 7.4 using KOH 5M), GDP 10 μM FAC and saponin 90 μg/ml FAC was also added). After 30 minutes pre-coupling on ice the bead and membrane suspension was dispensed into a white Greiner polypropylene LV384-well plate (5 μl/well), containing 0.1 μl of the compound. 5 μl/well [^35S]-GTPγS (0.5 nM final radioligand conc) made up in assay buffer was then added to agonist plates. The final assay cocktail (10.1 μl) was centrifuged at 1000 rpm for 5 minutes then read immediately on a Viewlux reader. All test compounds were dissolved in DMSO at a concentration of 10 mM and were prepared in 100% DMSO using a 1 in 4 dilution step to provide 11 point dose response curves. The dilutions were transferred to the assay plates ensuring that the DMSO concentration was constant across the plate for all assays. All data was normalized to the mean of 16 high and 16 low control wells on each plate. A four parameter curve fit was then applied. S1P3 expressing RBL membranes (1.5 μg/well) were homogenised by passing through a 23G needle. These were then adhered to WGA-coated SPA beads (0.125 mg/well) in assay buffer (HEPES 20 mM, MgCl2 10 mM, NaCl 100 mM and pH adjusted to 7.4 using KOH 5M). GDP 10 μM FAC and saponin 90 μg/ml FAC were also added After 30 minutes precoupling on ice, the bead and membrane suspension was dispensed into white Greiner polypropylene LV 384-well plates (5 μl/well), containing 0.1 μl of compound. 5 μl/well [^35S]-GTPγS (0.5 nM for S1P1 or 0.3 nM for S1P3 final radioligand concentration) made in assay buffer was then added to the plates. The final assay cocktail (10.1 μl) was then sealed, spun on a centrifuge, then read immediately on a Viewlux instrument.

pEC50 | SMILES
< 4.5 | FC(F)Oc1ccc(-c2nc(-c3cccc4cnccc34)no2)cc1 [Example 20, 5-(5-{4-[(Difluoromethyl)oxy]phenyl}-1,2,4-oxadiazol-3-yl)isoquinoline]
< 4.5 | CC(C)(C)Oc1ccc(-c2nc(-c3cccc4cnccc34)no2)cc1 [Example 13, 5-(5-{4-[(1,1-dimethylethyl)oxy]phenyl}-1,2,4-oxadiazol-3-yl)isoquinoline]
< 4.5 | COc1cc(-c2nc(-c3cccc4cnccc34)no2)ccc1OC(C)C [Example 12, 5-{5-[4-[(1-methylethyl)oxy]-3-(methyloxy)phenyl]-1,2,4-oxadiazol-3-yl}isoquinoline]
< 4.5 | CCC(C)Oc1ccc(-c2nc(-c3cccc4cnccc34)no2)cc1 (stereo not drawn) [Example 15, 5-(5-{4-[(1-methylpropyl)oxy]phenyl}-1,2,4-oxadiazol-3-yl)isoquinoline]
< 4.5 | CC(C)Cn1ccc(-c2nc(-c3cccc4cnccc34)no2)cc1=O [Example 17, 4-[3-(5-Isoquinolinyl)-1,2,4-oxadiazol-5-yl]-1-(2-methylpropyl)-2(1H)-pyridinone]
< 4.5 | CC(C)Oc1ccc(-c2nc(-c3cccc4cnccc34)no2)c(Cl)c1 [Example 21, 5-(5-{2-Chloro-4-[(1-methylethyl)oxy]phenyl}-1,2,4-oxadiazol-3-yl)isoquinoline]

More lines, now with the values behind:

SMILES | pEC50
CC(C)Oc1ccc(-c2nc(-c3cccc4c(N5CCC[C@H]5C(=O)O)nccc34)no2)cc1Cl [Example 9, 1-[5-(5-{3-Chloro-4-[(1-methylethyl)oxy]phenyl}-1,2,4-oxadiazol-3-yl)-1-isoquinolinyl]proline] | < 4.5
CC(C)Oc1ncc(-c2nc(-c3cccc4c(CCC(=O)O)nccc34)no2)cc1Cl [Example 27, 3-[5-(5-{5-Chloro-6-[(1-methylethyl)oxy]-3-pyridinyl}-1,2,4-oxadiazol-3-yl)-1-isoquinolinyl]propanoic acid] | < 4.5
CC(C)Oc1ccc(-c2nc(-c3cccc4c(N[C@H](C(=O)O)C(C)C)nccc34)no2)cc1Cl [Example 11, N-[5-(5-{3-Chloro-4-[(1-methylethyl)oxy]phenyl}-1,2,4-oxadiazol-3-yl)-1-isoquinolinyl]-L-valine] | < 4.5
CC(C)Oc1ncc(-c2nc(-c3cccc4c(CCCC(=O)O)nccc34)no2)cc1Cl [Example 30, 4-[5-(5-{5-Chloro-6-[(1-methylethyl)oxy]-3-pyridinyl}-1,2,4-oxadiazol-3-yl)-1-isoquinolinyl]butanoic acid] | < 5
CCOc1c(F)cc(-c2nc(-c3cccc4cnccc34)no2)cc1F [Example 14, 5-{5-[4-(ethyloxy)-3,5-difluorophenyl]-1,2,4-oxadiazol-3-yl}isoquinoline] | < 4.5
FC(F)(F)COc1ccc(-c2nc(-c3cccc4cnccc34)no2)cn1 [Example 18, 5-(5-{6-[(2,2,2-Trifluoroethyl)oxy]-3-pyridinyl}-1,2,4-oxadiazol-3-yl)isoquinoline] | < 4.5
CC(C)Oc1ccc(-c2nc(-c3cccc4c(N5CCC(C(=O)O)C5)nccc34)no2)cc1Cl (stereo not drawn) [Example 10, 1-[5-(5-{3-Chloro-4-[(1-methylethyl)oxy]phenyl}-1,2,4-oxadiazol-3-yl)-1-isoquinolinyl]-3-pyrrolidinecarboxylic acid] | < 4.5
CC(C)Oc1ccc(-c2nc(-c3cccc4c(CCC(=O)O)nccc34)no2)cc1C#N [Example 26, 3-[5-(5-{3-Cyano-4-[(1-methylethyl)oxy]phenyl}-1,2,4-oxadiazol-3-yl)-1-isoquinolinyl]propanoic acid hydrochloride] | < 4.5
FC(F)(F)Oc1ccc(-c2nc(-c3cccc4cnccc34)no2)cc1 [Example 19, 5-(5-{4-[(Trifluoromethyl)oxy]phenyl}-1,2,4-oxadiazol-3-yl)isoquinoline] | < 4.5
